According to patent publication US8216786B2, “Genetic polymorphisms associated with cardiovascular diseases, methods of detection and uses thereof” (Celera Corporation, priority 2008, dated 2012):
Further values from the same series stand in other lists.

System: individuals who have previously had an MI
Assay: CARE trial: effect of pravastatin vs placebo on coronary events (endpt1, rmi) by SNP genotype subgroup
Type: in vivo, human
Conditions: endpt1
Experimental: In Tables 21-22, the column labeled “Endpoint” indicates whether the endpoint that was analyzed was the primary endpoint of the CARE study (a composite endpoint of fatal coronary event or nonfatal MI, and identified as “endpt1”) or a composite endpoint of confirmed fatal or nonfatal MI (identified as “rmi”). […] As used herein, the term “benefit” (with respect to a preventive or therapeutic drug treatment) is defined as achieving a reduced risk for a disease that the drug is intended to treat or prevent (e.g., CVD such as CHD, particularly MI, or hypertension) by administering the drug treatment, compared with the risk for the disease in the absence of receiving the drug treatment (or receiving a placebo in lieu of the drug treatment) for the same genotype. […] J. […] (1996) New England Journal of Medicine 335: 1001-1009. […] A well-documented MI was one of the enrollment criteria for entry into the CARE study. Patients were enrolled in the CARE trial from 80 participating study centers. […] For the study of CARE described in this Example and shown in Tables 21-22, two endpoints were investigated: the primary endpoint of CARE (a composite endpoint of fatal coronary event or nonfatal MI, and identified as “endpt1” in the Endpoint column of Tables 21-22) and a composite endpoint of confirmed fatal or nonfatal MI (identified as “rmi” in the Endpoint column of Tables 21-22). […] HR stands for Hazard Ratio, which is a concept similar to Odds Ratio (OR). The HR in event-free survival analysis is the effect of an explanatory variable on the hazard or risk of an event. […] In Table 21, p-interaction values were calculated. An interaction (or effect modification) is formed when a third variable modifies the relation between an exposure and outcome. […] Genotype and drug interaction is present when the effect of statins (incidence rate of disease in statin-treated group, as compared to placebo) differs in patients with different genotypes.

[1] = hCV25605897 rs11568563 SLCO1A2, Strata GT + GG
[2] = hCV25605897 rs11568563 SLCO1A2, Strata TT
[3] = hCV25607193 FLNB, Strata CT + CC
[4] = hCV25608818 SLC10A2, Strata AG + AA
[5] = hCV25610470 rs34075341 C9orf47, Strata AG + AA
[6] = hCV25610470 rs34075341 C9orf47, Strata GG
[7] = hCV25610774 rs8176748, Strata TC + CC
[8] = hCV25610774 rs8176748, Strata TT
[9] = hCV25610819 rs8176740, Strata TA + AA
[10] = hCV25610819 rs8176740, Strata TT
[11] = hCV25614016 rs7607759 CAPN10, Strata AA
[12] = hCV25614016 rs7607759 CAPN10, Strata GA + GG
[13] = hCV25617571 rs2232580 LBP, Strata CC
[14] = hCV25617571 rs2232580 LBP, Strata TC + TT
[15] = hCV25623265 rs3746638 SIGLEC1, Strata GA + AA
[16] = hCV25623265 rs3746638 SIGLEC1, Strata GG
[17] = hCV25629396 rs3729823 MYH7, Strata CG + CC
[18] = hCV25629396 rs3729823 MYH7, Strata GG
[19] = hCV25629476 rs2427284 LAMA5, Strata AG + AA
[20] = hCV25629476 rs2427284 LAMA5, Strata GG
[21] = hCV25629492 rs944895 LAMA5, Strata AA
[22] = hCV25629492 rs944895 LAMA5, Strata GA + GG
[23] = hCV25629888 rs11539441 TIMP2, Strata GC + CC
[24] = hCV25629888 rs11539441 TIMP2, Strata GG
[25] = hCV25652744 rs1127525 USP21, Strata AA
[26] = hCV25652744 rs1127525 USP21, Strata AC
[27] = hCV25652744 rs1127525 USP21, Strata CC
[28] = hCV28974083 rs8032553 C15orf42, strata GA + AA
[29] = hCV28974083 rs8032553 C15orf42, strata GG
[30] = hCV29011391 rs7557067, strata AG + AA
[31] = hCV29011391 rs7557067, strata GG
[32] = hCV29135108 rs6743779 KLF7, strata AA
[33] = hCV29135108 rs6743779 KLF7, strata CA + CC
[34] = hCV30264691 rs10508518 CUBN, strata GG
[35] = hCV30264691 rs10508518 CUBN, strata TG + TT
[36] = hCV30606396 rs10438978, strata CC
[37] = hCV30606396 rs10438978, strata TC + TT
[38] = hCV31145250 rs10889353 DOCK7, strata AA
[39] = hCV31145250 rs10889353 DOCK7, strata AC + CC
[40] = hCV31237961 rs11950562 SLC22A4, strata AC + AA
[41] = hCV31237961 rs11950562 SLC22A4, strata CC
[42] = hCV31528409 rs7635061, strata AA
[43] = hCV31528409 rs7635061, strata AG + GG
[44] = hCV31954792 rs6477693 C9orf4, strata CA + AA
[45] = hCV31954792 rs6477693 C9orf4, strata CC
[46] = hDV70797856 rs17006217, strata CC
[47] = hDV70797856 rs17006217, strata CT
[48] = hDV70797856 rs17006217, strata TT
[49] = hDV76976592 rs4149274 ABCA1, strata GA + AA
[50] = hDV76976592 rs4149274 ABCA1, strata GG

SMILES: CC[C@H](C)C(=O)O[C@H]1C[C@H](O)C=C2C=C[C@H](C)[C@H](CC[C@@H](O)C[C@@H](O)CC(=O)O)[C@H]21 [pravastatin]
- EVENTS (Pravastatin arm) [1]: 7
- NONEVENT (Pravastatin arm) [1]: 150
- EVENTS (Pravastatin arm) [2]: 126
- NONEVENT (Pravastatin arm) [2]: 1140
- EVENTS (Pravastatin arm) [3]: 6
- NONEVENT (Pravastatin arm) [3]: 33
- EVENTS (Pravastatin arm) (hCV25607193 FLNB, Strata TT): 127
- NONEVENT (Pravastatin arm) (hCV25607193 FLNB, Strata TT): 1258
- EVENTS (Pravastatin arm) [4]: 7
- NONEVENT (Pravastatin arm) [4]: 32
- EVENTS (Pravastatin arm) (hCV25608818 SLC10A2, Strata GG): 126
- NONEVENT (Pravastatin arm) (hCV25608818 SLC10A2, Strata GG): 1258
- EVENTS (Pravastatin arm) [5]: 4
- NONEVENT (Pravastatin arm) [5]: 103
- EVENTS (Pravastatin arm) [6]: 128
- NONEVENT (Pravastatin arm) [6]: 1182
- EVENTS (Pravastatin arm) [7]: 127
- NONEVENT (Pravastatin arm) [7]: 1231
- EVENTS (Pravastatin arm) [8]: 5
- NONEVENT (Pravastatin arm) [8]: 57
- EVENTS (Pravastatin arm) [9]: 128
- NONEVENT (Pravastatin arm) [9]: 1225
- EVENTS (Pravastatin arm) [10]: 5
- NONEVENT (Pravastatin arm) [10]: 58
- EVENTS (Pravastatin arm) [11]: 87
- NONEVENT (Pravastatin arm) [11]: 915
- EVENTS (Pravastatin arm) [12]: 46
- NONEVENT (Pravastatin arm) [12]: 374
- EVENTS (Pravastatin arm) [13]: 117
- NONEVENT (Pravastatin arm) [13]: 1090
- EVENTS (Pravastatin arm) [14]: 16
- NONEVENT (Pravastatin arm) [14]: 200
- EVENTS (Pravastatin arm) [15]: 118
- NONEVENT (Pravastatin arm) [15]: 1000
- EVENTS (Pravastatin arm) [16]: 14
- NONEVENT (Pravastatin arm) [16]: 288
- EVENTS (Pravastatin arm) [17]: 7
- NONEVENT (Pravastatin arm) [17]: 26
- EVENTS (Pravastatin arm) [18]: 125
- NONEVENT (Pravastatin arm) [18]: 1260
- EVENTS (Pravastatin arm) [19]: 22
- NONEVENT (Pravastatin arm) [19]: 131
- EVENTS (Pravastatin arm) [20]: 111
- NONEVENT (Pravastatin arm) [20]: 1158
- EVENTS (Pravastatin arm) [21]: 66
- NONEVENT (Pravastatin arm) [21]: 511
- EVENTS (Pravastatin arm) [22]: 64
- NONEVENT (Pravastatin arm) [22]: 773
- EVENTS (Pravastatin arm) [23]: 125
- NONEVENT (Pravastatin arm) [23]: 1261
- EVENTS (Pravastatin arm) [24]: 7
- NONEVENT (Pravastatin arm) [24]: 30
- EVENTS (Pravastatin arm) [25]: 1
- NONEVENT (Pravastatin arm) [25]: 0
- EVENTS (Pravastatin arm) [26]: 5
- NONEVENT (Pravastatin arm) [26]: 113
- EVENTS (Pravastatin arm) [27]: 127
- NONEVENT (Pravastatin arm) [27]: 1153
- EVENTS (Pravastatin arm) [28]: 105
- NONEVENT (Pravastatin arm) [28]: 902
- EVENTS (Pravastatin arm) [29]: 31
- NONEVENT (Pravastatin arm) [29]: 360
- EVENTS (Pravastatin arm) [30]: 126
- NONEVENT (Pravastatin arm) [30]: 1191
- EVENTS (Pravastatin arm) [31]: 9
- NONEVENT (Pravastatin arm) [31]: 69
- EVENTS (Pravastatin arm) [32]: 74
- NONEVENT (Pravastatin arm) [32]: 601
- EVENTS (Pravastatin arm) [33]: 61
- NONEVENT (Pravastatin arm) [33]: 661
- EVENTS (Pravastatin arm) [34]: 15
- NONEVENT (Pravastatin arm) [34]: 111
- EVENTS (Pravastatin arm) [35]: 121
- NONEVENT (Pravastatin arm) [35]: 1148
- EVENTS (Pravastatin arm) [36]: 96
- NONEVENT (Pravastatin arm) [36]: 834
- EVENTS (Pravastatin arm) [37]: 40
- NONEVENT (Pravastatin arm) [37]: 428
- EVENTS (Pravastatin arm) [38]: 52
- NONEVENT (Pravastatin arm) [38]: 575
- EVENTS (Pravastatin arm) [39]: 84
- NONEVENT (Pravastatin arm) [39]: 685
- EVENTS (Pravastatin arm) [40]: 101
- NONEVENT (Pravastatin arm) [40]: 986
- EVENTS (Pravastatin arm) [41]: 35
- NONEVENT (Pravastatin arm) [41]: 279
- EVENTS (Pravastatin arm) [42]: 62
- NONEVENT (Pravastatin arm) [42]: 659
- EVENTS (Pravastatin arm) [43]: 74
- NONEVENT (Pravastatin arm) [43]: 606
- EVENTS (Pravastatin arm) [44]: 129
- NONEVENT (Pravastatin arm) [44]: 1163
- EVENTS (Pravastatin arm) [45]: 7
- NONEVENT (Pravastatin arm) [45]: 103
- EVENTS (Pravastatin arm) [46]: 2
- NONEVENT (Pravastatin arm) [46]: 14
- EVENTS (Pravastatin arm) [47]: 25
- NONEVENT (Pravastatin arm) [47]: 255
- EVENTS (Pravastatin arm) [48]: 109
- NONEVENT (Pravastatin arm) [48]: 997
- EVENTS (Pravastatin arm) [49]: 84
- NONEVENT (Pravastatin arm) [49]: 705
- EVENTS (Pravastatin arm) [50]: 52
- NONEVENT (Pravastatin arm) [50]: 557
- EVENTS (Pravastatin arm) (hcV15870728 rs2943245 C10orf64, strata CT + TT): 106
